Test results from US20120289681A1, “CONJUGATES OF CELL-PENETRATING PEPTIDES AND PHOSPHORESCENT METALLOPORPHYRINS FOR INTRACELLULAR OXYGEN MEASUREMENT” (UNIVERSITY COLLEGE CORK, NATIONAL UNIVERSITY OF IRELAND CORK, priority 2009, published 2012).
Residues, ends and D or L forms follow the SMILES beside them. *: point of attachment. X1 = CCOC(=O)CCC1=C(C)c2cc3[nH]c(cc4nc(cc5[nH]c(cc1n2)c(C)c5CCC(=O)OCC)C(C)=C4CCC(=O)NCCNC(=O)CCN1C(=O)CC(*)C1=O)c(C)c3CCC(=O)OCC

How the values were obtained:
[1] = tested on: PC12 cells; test: Oxygen calibration of the intracellular probe (phosphorescence lifetime in hypoxia chamber); type: cell-based; details: non-respiring PC12 cells (antimycin A)
[2] = tested on: cells; test: Intracellular localisation by fluorescent imaging (cell line not stated); type: cell-based

Compound	phosphorescence lifetime in deoxygenated conditions ([1]; deoxygenated) [us]	average phosphorescence lifetime under normoxia ([1]; normoxia 20.8% O2) [us]	intracellular localisation (in words) [2]
CCOC(=O)CCC1=C(C)c2cc3[nH]c(cc4nc(cc5[nH]c(cc1n2)c(C)c5CCC(=O)OCC)C(C)=C4CCC(=O)NCCNC(=O)CCN1C(=O)CC(SC[C@H](N)C(=O)N[C@@H](Cc2ccccc2)C(=O)N[C@@H](CCCNC(=N)N)C(=O)N[C@@H](CCCNC(=N)N)C(=O)N[C@@H](CCCNC(=N)N)C(=O)N[C@@H](CCCNC(=N)N)C(=O)N[C@@H](CCCNC(=N)N)C(=O)N[C@@H](CCCNC(=N)N)C(=O)N[C@@H](CCCNC(=N)N)C(=O)N[C@@H](CCCNC(=N)N)C(=O)N[C@@H](CCCNC(=N)N)C(=O)O)C1=O)c(C)c3CCC(=O)OCC (stereo partly shown) [PTCPTE-CFR9] (H-C(X1)FRRRRRRRRR-OH; N-terminus assumed)	65	33±2	–
PEPP5: MTS-CGR9 peptide MGRTVVVLGGGISGLAAGCGRRRRRRRRR labelled with PTCPTE-MI derivative (PTCPTE-MI label)	–	–	preferential co-localisation with mitochondria
Pt-tetrakis(pyridinium)porphine tetrachloride [reference compound]	–	–	accumulated in the nuclei
